# Source: paper PMC9684461, “RNA-controlled nucleocytoplasmic shuttling of mRNA decay factors regulates mRNA synthesis and a novel mRNA decay pathway” (Nature Communications, 2021)
# Chains of the proteins cited; added tags and fusions are not shown. Lines headed by an entry give the natural chain unless they say otherwise; changes in a name come on top.
# UniProt P22147: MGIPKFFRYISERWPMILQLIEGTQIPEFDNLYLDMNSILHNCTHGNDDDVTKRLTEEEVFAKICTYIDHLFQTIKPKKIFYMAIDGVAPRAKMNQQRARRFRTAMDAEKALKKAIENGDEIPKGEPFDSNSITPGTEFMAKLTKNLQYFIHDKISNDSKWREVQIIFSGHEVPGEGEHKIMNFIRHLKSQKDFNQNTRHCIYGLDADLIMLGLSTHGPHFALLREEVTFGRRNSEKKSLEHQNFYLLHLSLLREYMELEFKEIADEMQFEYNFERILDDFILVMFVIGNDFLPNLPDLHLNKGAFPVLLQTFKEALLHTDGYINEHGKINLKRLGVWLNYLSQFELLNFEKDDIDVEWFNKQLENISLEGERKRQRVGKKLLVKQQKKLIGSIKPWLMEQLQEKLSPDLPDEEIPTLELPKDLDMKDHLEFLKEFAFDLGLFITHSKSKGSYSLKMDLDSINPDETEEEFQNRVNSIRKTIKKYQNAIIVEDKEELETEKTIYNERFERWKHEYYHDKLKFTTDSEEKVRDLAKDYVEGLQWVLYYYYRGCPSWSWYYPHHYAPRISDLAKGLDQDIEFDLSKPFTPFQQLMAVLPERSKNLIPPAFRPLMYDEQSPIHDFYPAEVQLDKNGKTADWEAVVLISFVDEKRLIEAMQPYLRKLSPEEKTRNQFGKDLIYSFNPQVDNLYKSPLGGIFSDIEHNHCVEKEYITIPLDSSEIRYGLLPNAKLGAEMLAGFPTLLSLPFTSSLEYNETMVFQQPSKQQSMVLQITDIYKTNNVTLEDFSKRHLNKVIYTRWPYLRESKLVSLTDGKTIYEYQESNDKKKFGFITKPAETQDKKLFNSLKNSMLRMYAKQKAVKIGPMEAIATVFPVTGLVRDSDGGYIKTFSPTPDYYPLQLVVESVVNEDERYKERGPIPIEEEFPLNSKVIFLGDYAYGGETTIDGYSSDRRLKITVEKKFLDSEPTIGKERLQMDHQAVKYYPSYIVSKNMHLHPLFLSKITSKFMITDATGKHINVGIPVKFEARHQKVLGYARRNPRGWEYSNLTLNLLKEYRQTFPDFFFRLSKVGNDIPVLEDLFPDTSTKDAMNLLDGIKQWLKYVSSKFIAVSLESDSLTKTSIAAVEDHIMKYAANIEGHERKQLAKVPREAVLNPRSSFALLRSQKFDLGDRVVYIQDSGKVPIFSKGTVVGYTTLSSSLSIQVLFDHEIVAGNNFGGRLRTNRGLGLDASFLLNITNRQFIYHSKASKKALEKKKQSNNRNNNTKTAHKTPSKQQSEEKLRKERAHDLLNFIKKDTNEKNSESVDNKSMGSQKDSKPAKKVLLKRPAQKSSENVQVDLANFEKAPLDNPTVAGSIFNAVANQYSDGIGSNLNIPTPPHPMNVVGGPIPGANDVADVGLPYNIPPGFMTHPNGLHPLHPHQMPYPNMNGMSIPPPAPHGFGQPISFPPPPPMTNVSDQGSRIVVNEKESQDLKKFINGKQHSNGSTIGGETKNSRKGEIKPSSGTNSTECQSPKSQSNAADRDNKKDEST
# B1: recombinant 6xHis-tagged Kap120 (natural protein, S. cerevisiae, UniProt Q02932 1-1032, looked up)
# chain: MASSLNELNLVQVLEQASNPQHIRSDVQKLAEQQLRQWETQAGFHYLLQSIYLNLSNSLQIRWLAVIQFKNGVDKYWRSTRINAIPKDEKASIRGRLFEMIDEQNNQLCIQNAQASARIARLDFPVEWPTLFEDLENLLNDEIIRKDSVKIYNILMHINQIVKVLGTARIGRCRPAMQSKVPLILPLIVRIYLQSFEEWTTSSNLNYEDLSSLQVSYLALKVLRRIICEGYDRPQTDQSVCDFIKLSVSHFEMLISNHENFKKFDIYEKFIKCLGKLYFNLVTGSPANFILLPCSTQILITYTRLIFDKAPKVYRENSDVTGDFWEQTAIRGLLILKRVINFIHKKGAITLKARSDKLTIDASINKINTEFLNENLITRLVDTLMEWYLRLRPTELENWFMDPEEWINEQMATSYEYQIRPCAENVFQDLMNTFSELLVPYLLKKIENDASKLSNSLDDFLRKDAIYASFQLSASAVSEMVDFDRLLIQVFLPEATNTNISGDELRIIRRRVALIINEWSTVKCSEESKSLCYKLFTNFLTDEDDKVVLLTTVQTVRTMVDDWNFNKDTFQPFLTENVHLLLRKILPSVSLTETRLYVLNTLSDIIIQTKPLISRDLLVEILQIIPNLWEIATNNASEAILANALLRLLRNLVSSLGSQSHLTWDIAIPVVALACDPSSMQYQLLSEDGYELWGMLLQNFSSHDQEFDDKFVELVPFLKYGIETHTEILPTLLEIIKSYALILNPVDFFSNNTFQDIFKQMSKYLLKLREDSFQLVLEIWEILILSNESDYENLLLQKFYETGVLSALFDAIFLEEAPSSYLCSQIIQIIARISYVNPDALMTFLATYHDNLPTSNENARMPESIRKIVSKDQTYDSVVNKLLTGWIVCFRDIFDPKFKKVHILGISSLLRTGLVPILTEFSSIASLWIEMLEEINETNRGDCEKYHLNDIVTEQSIAFHPLTAEQLRYHQLCKNNDPVHNISLKDFISQSMEYLESHLGVERYQEFLKTINPSLLENLQMFLSIQPQEARP
# notes: karyopherin (importin) Kap120 of S. cerevisiae; also called Kap120-6xHis; Kap120-His; source: E. coli, IPTG induced, purified (Ni-NTA)
# Key:
# [1] = biological target: B1; test: pull-down; purified Kap120-6xHis mixed with purified Xrn1-FLAG (WT or mutant), 1 h at 4 °C in a rotator; complex captured on Ni-NTA, Western blotting; Xrn1-FLAG intensity normalized to Kap120; both purified
# [2] = biological target: FLAG-tagged Xrn1^ΔNLS1 (S. cerevisiae) (UniProt P22147); test: co-IP; purified Kap120-6xHis and Xrn1-FLAG with mutations in the indicated NLS, with EDTA (2 mM) and increasing amounts of 40 nt RNA; complexes captured by anti-FLAG antibodies; both purified
# [3] = biological target: FLAG-tagged Xrn1^ΔNLS2 (S. cerevisiae) (UniProt P22147); test: as above
Molecule,binding [1],binding [2],binding [3]
FLAG-tagged Xrn1^ΔNLS1 (from UniProt P22147) (enzyme),binds,,
FLAG-tagged Xrn1^ΔNLS2 (from UniProt P22147) (enzyme),binds,,
B1,,binds,binds

# Results are given in words; binding and its absence hold for the method and conditions named. A result given as binding can be weak or reduced; the word gives no strength. Sequences can lack the tags named with a protein. For some of these results: Binding seen in cells or lysates may run through a third protein.
